Test results published in patent publication US20260217833A1.
These are yes or no findings as the source states them, for the method shown. Some entries that bind do so weakly or less than the wild type.

By UniProt entry, the sequences of proteins in these tests, tags left out. Where a name states a change or a piece, a line headed by the entry shows the natural chain unless it says otherwise.
UniProt P25942: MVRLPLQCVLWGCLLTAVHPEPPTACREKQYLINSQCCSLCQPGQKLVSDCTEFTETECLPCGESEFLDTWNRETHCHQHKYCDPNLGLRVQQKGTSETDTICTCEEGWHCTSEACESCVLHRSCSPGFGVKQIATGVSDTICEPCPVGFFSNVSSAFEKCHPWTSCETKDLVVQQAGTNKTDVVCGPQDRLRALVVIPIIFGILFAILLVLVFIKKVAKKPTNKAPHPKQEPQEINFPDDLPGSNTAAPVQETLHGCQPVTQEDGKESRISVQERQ

Tests used:
[1] = target: human CD40 full-length (human) (UniProt P25942); experiment: binding to cells expressing full length human- or cyno-CD40, unpurified small-scale material
[2] = target: human CD40 full-length (human) (UniProt P25942); experiment: flow cytometry, CHOK1SV/human CD40 cells

binding [1] | binding [2] | Binder
binds | binds | CD4001089 (Fc fusion, not shown: a dimerising Fc or GST) DVQMTQSPILLSASVGDRVTITCRSSQSLVHYNGYTYVHWYQQRTNGSPRLLIYKVSNRFSGVPDRFSGSGSGTDFTLTISSLQPEDIADYFCQQTTHVPLTFGAGTKVEIKGGGGSGGGGSGGGGSGGGGSEVQLVESGGGLVQPGRSLRLSCAASGFTFSSYAMSWVRQAPGKGLEWVASISSAGTYIYYADSVQGRFTISRDNGKNSLYLQMNSLRAEDTALYYCARHGNGYDPLWYFDVWGQGTMVTVSS
– | binds | CD4001132 (Fc fusion, not shown: a dimerising Fc or GST) DVQMTQSPILLSASVGDRVTITCRSSQSLVHYNGYTYVHWYQQKPGKAPKLLIYKVSNLFSGVPSRFSGSGSGTDFTLTISSLQPEDIADYFCQQTTHVPLTFGAGTKVEIKGGGGSGGGGSGGGGSGGGGSEVQLVESGGGLVQPGGSLRLSCAASGFTFSSYAMSWVRQAPGKGLEWVSAISSAGTYIYYADSVKGRFTISRDNSKNTLYLQMNSLRAEDTAVYYCARHGNGYDPLWYFDVWGQGTTVTVSS
